# Reference: patent publication US7189760B2, “Physiological cooling compositions containing highly purified ethyl ester of N-[[5-methyl-2-(1-methylethyl) cyclohexyl] carbonyl]glycine” (Millennium Specialty Chemicals, priority 2004, dated 2007)
# Test: visual and organoleptic test of aqueous solution of the product
# Type: in vivo
# Settings: 25 ppm aqueous solution
# Text: Further, the aqueous solutions of products for organoleptic tests were obtained by dissolving appropriate amounts of the products in dipropylene glycol DPG and adding the solution in DPG to an appropriate amount of water.
row,SMILES,bitter and sour taste and aftertaste
1,"CCOC(=O)CNC(=O)C1CC(C)CCC1C(C)C (stereo not shown) [Comparative Synthetic and Organoleptic Example 2 after the a] [ethyl ester of N-[[5-methyl-2-(1-methylethyl)cyclohexyl]carbonyl]glycine, reference compound]",noticeable bitter and sour taste and aftertaste
2,"CCOC(=O)CNC(=O)C1CC(C)CCC1C(C)C (stereo not shown) [Inventive Example 5, ethyl ester of N-[[5-methyl-2-(1-methylethyl)cyclohexyl]carbonyl]glycine]","very weak bitter aftertaste, much weaker than in the unpurified products of the prior art"
3,"CCOC(=O)CNC(=O)C1CC(C)CCC1C(C)C (stereo not shown) [Inventive Example 1, ethyl ester of N-[[5-methyl-2-(1-methylethyl)cyclohexyl]carbonyl]glycine]",no bitter and sour taste or aftertaste
4,"CCOC(=O)CNC(=O)C1CC(C)CCC1C(C)C (stereo not shown) [Comparative Synthetic and Organoleptic Example 2] [ethyl ester of N-[[5-methyl-2-(1-methylethyl)cyclohexyl]carbonyl]glycine, reference compound]",noticeable bitter and sour taste and aftertaste
5,"CCOC(=O)CNC(=O)C1CC(C)CCC1C(C)C (stereo not shown) [Comparative Synthetic and Organoleptic Example 1] [ethyl ester of N-[[5-methyl-2-(1-methylethyl)cyclohexyl]carbonyl]glycine, reference compound]",very noticeable bitter and sour taste and aftertaste
6,"CCOC(=O)CNC(=O)C1CC(C)CCC1C(C)C (stereo not shown) [Inventive Example 3 (A), ethyl ester of N-[[5-methyl-2-(1-methylethyl)cyclohexyl]carbonyl]glycine]",weak bitter aftertaste
7,"CCOC(=O)CNC(=O)C1CC(C)CCC1C(C)C (stereo not shown) [Inventive Example 2, ethyl ester of N-[[5-methyl-2-(1-methylethyl)cyclohexyl]carbonyl]glycine]",no bitter and sour taste or aftertaste
8,"CCOC(=O)CNC(=O)C1CC(C)CCC1C(C)C (stereo not shown) [Inventive Example 4, ethyl ester of N-[[5-methyl-2-(1-methylethyl)cyclohexyl]carbonyl]glycine]","somewhat bitter taste and aftertaste, but weaker than in the unpurified products of the prior art"

# Same assay, conditions: 25 ppm aqueous solution; listed as Inventive Example 3 (B)
row,SMILES,bitter and sour taste and aftertaste
1,"CCOC(=O)CNC(=O)C1CC(C)CCC1C(C)C (stereo not shown) [Inventive Example 3, ethyl ester of N-[[5-methyl-2-(1-methylethyl)cyclohexyl]carbonyl]glycine]",no bitter or sour taste or aftertaste

# Same assay, conditions: summary statement
row,SMILES,odor
1,"CCOC(=O)CNC(=O)C1CC(C)CCC1C(C)C (stereo not shown) [compound 10, ethyl ester of N-[[5-methyl-2-(1-methylethyl)cyclohexyl]carbonyl]glycine]",almost odorless
